The source of these data is paper PMC3365016.

The chains behind the UniProt entries cited, without tags or fusion partners.
UniProt P09405: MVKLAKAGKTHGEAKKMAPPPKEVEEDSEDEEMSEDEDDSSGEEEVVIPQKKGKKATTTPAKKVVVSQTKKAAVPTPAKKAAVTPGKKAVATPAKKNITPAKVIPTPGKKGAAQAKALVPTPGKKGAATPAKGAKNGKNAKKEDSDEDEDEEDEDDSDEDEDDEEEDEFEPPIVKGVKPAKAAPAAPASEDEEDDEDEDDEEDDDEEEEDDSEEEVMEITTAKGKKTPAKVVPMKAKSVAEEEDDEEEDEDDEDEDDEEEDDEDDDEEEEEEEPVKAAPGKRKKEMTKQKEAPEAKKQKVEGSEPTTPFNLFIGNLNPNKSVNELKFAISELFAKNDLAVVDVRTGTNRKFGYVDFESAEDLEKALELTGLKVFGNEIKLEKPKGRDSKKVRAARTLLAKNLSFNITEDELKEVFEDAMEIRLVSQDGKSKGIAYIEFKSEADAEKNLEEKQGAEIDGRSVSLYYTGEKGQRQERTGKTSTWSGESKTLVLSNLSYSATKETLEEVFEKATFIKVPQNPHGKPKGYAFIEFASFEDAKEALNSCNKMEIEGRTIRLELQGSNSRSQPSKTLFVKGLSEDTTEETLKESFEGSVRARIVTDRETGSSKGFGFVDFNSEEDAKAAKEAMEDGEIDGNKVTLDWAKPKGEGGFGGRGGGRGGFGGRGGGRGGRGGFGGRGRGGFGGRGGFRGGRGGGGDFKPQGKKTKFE

No constants are given. Whether binding was seen depends on the method and setting. In cells and extracts the contact can be indirect. A yes stands for co-enrichment or nearness to the bait. Other partners may have been found. Where a sequence is shown, tags or fusion partners need not be part of it.

In the experiment the target is T1, V5-tagged G0S2 (G0/G1 switch gene 2), murine, full length (mouse) (UniProt Q61585).
T1 sequence: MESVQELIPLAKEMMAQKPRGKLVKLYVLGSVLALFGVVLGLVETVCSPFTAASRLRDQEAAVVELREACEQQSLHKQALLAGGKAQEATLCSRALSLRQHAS
The experiment can be described thus: affinity purification with mass spectrometry; anti-V5 immunoprecipitation (Protein G-sepharose) from lysates of EL4 cells transduced with V5-tagged G0S2 or empty retrovirus; 150 mM NaCl, 50 mM Tris pH 8, 1% Triton X-100; Coomassie-stained bands cut out, trypsin, peptide mass fingerprinting.

As to “nucleolin, endogenous (mouse cells) (from UniProt P09405 1-707)”, the binding entry was “binds”.
